Source: PubChem BioAssay AID540256 (National Center for Advancing Translational Sciences (NCATS), 2011)
Hit rate of the full screen: of about 300,000 compounds, about 3,700 (1.2%) were called active. The inconclusive results got no clear call from the source; some entries with a clear call stand among them for comparison. Calls come from the whole dose curve; tested in HEK293 cells. Potencies beside an inconclusive call are fits to weak or partial responses and may not hold up.

experiment: qHTS for Inhibitors of binding or entry into cells for Lassa Virus; conditions: Lassa virus pseudotype entry inhibition, cell reporter; series mostly up to 37.9 µM; note: nearly all actives have a fitted effect of over 50% in size
Potency is the fitted concentration of half-maximal effect.

Structure (SMILES)	Potency
COc1cc(/C=N/N=C2/NC(=O)C(c3ccccc3)S2)ccc1O (configuration not stated)	active: 4.47 µM
CC(=O)c1cccc(NC(=O)Cc2cccs2)c1	inactive
O=C(/C=C/Nc1ccc(Cc2ccc(N/C=C/C(=O)C(F)(F)F)cc2)cc1)C(F)(F)F	inconclusive: 0.562 µM [inhibitor, full curve]
O=C(Nc1nc(-c2ccncc2)cs1)c1ccc(S(=O)(=O)N2CCOCC2)cc1	inconclusive: 6.51 µM [activator, single point]
Cc1ccc(C(=O)N2CCCC(C(=O)c3ccc(Cl)cc3C)C2)cn1 (configuration not stated)	inconclusive: 31.6 µM [inhibitor, partial curve, poor fit]
CC(=NNC(=S)N1CC2CCC(CC2)C1)c1nccs1	inconclusive: 2 µM [inhibitor, full curve, poor fit]
O=C(COc1ccccc1)Nc1cc(NC(=O)COc2ccccc2)cc(C(=O)O)c1	inconclusive: 1.26 µM [inhibitor, single point]
O=C(N/N=C/c1c(O)n(-c2ccc(Cl)cn2)c(=O)c2ccccc12)c1ccncc1	inactive
O=C(Nc1ccc(Cl)cc1F)c1ccc(COc2c(F)c(F)c(F)c(F)c2F)o1	inconclusive: 25.1 µM [inhibitor, single point]
CC1(C(=O)NCCN2CCOCC2)C=CCN1C(=O)c1ccccc1 (configuration not stated)	inactive
CN(C)c1ccc(C(CNC(=O)c2ccc(C(C)(C)C)cc2)N2CCOCC2)cc1 (configuration not stated)	inconclusive: 3.16 µM [inhibitor, partial curve, poor fit]
Cc1cc2nc3c(c(C(F)(F)F)n2n1)CCCC3	inconclusive: 0.794 µM [inhibitor, single point]
CC1CN(S(=O)(=O)c2cc(C(=O)N(CCc3ccccc3)Cc3ccccc3)ccc2Cl)CC(C)O1 (configuration not stated)	inconclusive: 35.5 µM [inhibitor, single point]
c1ccc(CN2CCN(Cc3c[nH]c4ccccc34)CC2)cc1	inactive
CCOc1ccc(C2CC(c3cccc(OC)c3OC)n3nnnc3N2)cc1Cl (configuration not stated)	inactive
COCCn1c(C)cc(C(=O)CSc2nnnn2C2CCCC2)c1C	active: 1.26 µM
CCOC(=O)c1c(-c2ccc(F)cc2)csc1NC(=O)c1c(-c2ccccc2)noc1C	active: 8.91 µM
CC1Cc2cc(S(=O)(=O)N3CCC(C(=O)Nc4ccccn4)CC3)ccc2N1C(=O)C1CCC1 (configuration not stated)	inconclusive: 17.8 µM [inhibitor, single point]
COc1ccccc1N1CCN(c2ncnc3c2oc2ccccc23)CC1	inconclusive: 0.891 µM [inhibitor, partial curve, poor fit]
C#CCn1c(=NC(=O)c2ccc(S(=O)(=O)N3CCc4ccccc4C3)cc2)sc2cc(S(N)(=O)=O)ccc21	active: 9.2 µM
Cc1ccc(C)c(S(=O)(=O)N2CCN(C(=O)Cc3ccccc3)CC2)c1	inconclusive: 35.5 µM [inhibitor, single point]
CC(C)c1ccc(CCNC(=O)CSC(=S)N2CCCC2)cc1	inactive
O=C(NCCc1ccc2c(c1)OCCO2)c1ccccc1F	inconclusive: 1.26 µM [activator, single point]

Structure (SMILES)	Potency
CSc1ncc(CN2CCc3c([nH]c4ccccc34)C2C(C)(C)C)cn1 (configuration not stated)	inconclusive: 4.47 µM [inhibitor, partial curve, poor fit]
COc1ccc(N2CCN(C(=O)c3ccc(N(C)S(=O)(=O)c4ccc(OC)cc4)cc3)CC2)cc1	inconclusive: 8.91 µM [inhibitor, partial curve]
Cc1ccc(NC(=O)C2C(=O)N(CCO)C3(C)CC2c2ccccc2O3)cc1 (configuration not stated)	inconclusive: 1.46 µM [activator, partial curve, poor fit]
CCn1cc(S(=O)(=O)c2cc(C)cc(C)c2)c(=O)c2cc(F)c(N3CCCC3)cc21	inactive
CC1CCCN(c2ccc(/C=C(\C#N)c3nn(-c4ccccc4)c(N)c3C#N)cc2[N+](=O)[O-])C1 (configuration not stated)	inconclusive: 15.8 µM [inhibitor, single point]
CCOc1cc2[nH]c(=O)n(CCCCC(=O)N3CCCCCC3)c(=O)c2cc1OCC	inconclusive: 5.17 µM [inhibitor, full curve, poor fit]
O=C(NCc1ccco1)c1cc2c(s1)CCCCC2	inconclusive: 14.6 µM [inhibitor, partial curve, poor fit]
COc1ccc(NC(=O)CCC(=O)c2cccs2)cc1S(=O)(=O)Nc1ccccc1Cl	inconclusive: 6.51 µM [inhibitor, partial curve, poor fit]
O=C1NC(=S)SC1=Cc1ccc(Cl)cc1	inconclusive: 3.55 µM [inhibitor, partial curve, poor fit]
CN(C)c1ccc(C(=O)/C=C/c2ccccc2)cc1	inconclusive: 17.8 µM [inhibitor, single point]
O=c1[nH]c(NC2CCCCC2)nnc1Cc1ccccc1	inactive
CCCCOC(=O)CSc1nnc(-c2cc(OC)c(OC)c(OC)c2)o1	inconclusive: 1.16 µM [inhibitor, partial curve, poor fit]
O=C(Nc1ccc(-c2nnco2)cc1)c1ccccc1	inactive
O=C(Nc1ccc(S(=O)(=O)N2CCCC2)cc1)c1ccc([N+](=O)[O-])cc1	inconclusive: 0.891 µM [inhibitor, single point]
CCOC(=O)C1(CCc2ccccc2)CCN(Cc2ccc(OC)cc2)CC1	inconclusive: 35.5 µM [inhibitor, single point]
O=C(c1ccc2c(c1)N(Cc1ccc(F)cc1)CCS2)N1CCOCC1	inactive
Cc1ncsc1CCOC(=O)C12CC3CC(CC(C3)C1)C2	inconclusive: 8.2 µM [inhibitor, partial curve, poor fit]
NS(=O)(=O)c1ccc(CCNC(=O)C2CCCO2)cc1 (configuration not stated)	inconclusive: 35.5 µM [inhibitor, single point]
CN(c1cccc(Cl)c1)S(=O)(=O)c1cccc(C(=O)Nc2nc3ccccc3[nH]2)c1	inconclusive: 35.5 µM [inhibitor, single point]
CCOC(=O)c1cc2occc2n1CC(=O)Nc1ccc(OC)cc1OC	inactive
CCOC(=O)c1c(NC(=O)CCC(=O)N2CCOCC2)sc2c1CC(C)(C)OC2	inconclusive: 35.5 µM [activator, single point]
O=S(=O)(Nc1ccccc1)C1CCCCC1	inactive
COc1cc(NC(=O)N2CCC(CN3CCCC3)CC2)cc(OC)c1OC	inconclusive: 0.562 µM [activator, full curve, poor fit]

Structure (SMILES)	Potency
Cc1cc(NC(=O)CSc2nnc(-c3cccnc3)n2N)no1	inconclusive: 0.891 µM [inhibitor, full curve, poor fit]
CN(C)c1ccc(C(CNS(=O)(=O)c2ccccc2)N2CCc3ccccc32)cc1 (configuration not stated)	inactive
COc1ccc(CNC(=O)Cc2csc(NC(=O)Nc3ccccc3OC)n2)cc1	inconclusive: 35.5 µM [inhibitor, partial curve, poor fit]
COc1cc(C(=O)NCC(c2cccnc2)N2CCc3ccccc32)cc(OC)c1OC (configuration not stated)	inconclusive: 6.31 µM [inhibitor, partial curve, poor fit]
Cn1c(SCc2ccc(C(F)(F)F)cc2)nc2c([nH]c3ccccc32)c1=O	inactive
C/C(=N\N=C1\NC(=O)C(CC(=O)Nc2ccccc2F)S1)C1CCCCC1 (configuration not stated)	inconclusive: 8.91 µM [inhibitor, partial curve, poor fit]
COc1ccc(OC)c(NC(=O)CSC2=Nc3ccccc3C3=NC(CC(=O)NCc4ccc5c(c4)OCO5)C(=O)N23)c1 (configuration not stated)	inactive
O=C(Nc1ccc(S(=O)(=O)N2CCCC2)cc1)c1ccc(F)cc1	inactive
CC1CCCCN1CC(O)COCc1ccccc1 (configuration not stated)	inactive
Nc1ncc(-c2nnnn2-c2ccc(Cl)cc2)c(-c2ccc(Cl)cc2)n1	inconclusive: 1.46 µM [inhibitor, full curve, poor fit]
CCCCCCCCCCCCN1C(=O)CSC1c1cccnc1 (configuration not stated)	inconclusive: 35.5 µM [inhibitor, partial curve, poor fit]
O=[N+]([O-])c1ccc(N2CCN(c3ccc(Cl)nn3)CC2)cc1NC1CC1	inactive
COc1cc(Cn2c(N)c(C(=O)NCc3ccco3)c3nc4ccccc4nc32)cc(OC)c1OC	inconclusive: 29.1 µM [inhibitor, single point]
O=C(CSc1nc(-c2ccco2)cc(C(F)(F)F)n1)N1CCN(c2cccc(Cl)c2)CC1	inconclusive: 12.6 µM [inhibitor, partial curve, poor fit]
Cc1ccc2c(C)c(C(=O)N(Cc3ccc(Cl)cc3)C3CCS(=O)(=O)C3)oc2c1 (configuration not stated)	inactive
O=C(CSc1nccn1-c1ccc(F)cc1)Nc1ccc(OC(F)(F)F)cc1	inactive
COc1ccc(CC(=O)NCCc2ccc(Cl)cc2Cl)cc1	inconclusive: 22.4 µM [activator, single point]
CC(C)(C)NC(=O)NC(=O)CN1CCN(c2ccc(O)cc2)CC1	inconclusive: 15.8 µM [inhibitor, partial curve, poor fit]
Cc1cc(C)cc(Nc2ccc([N+](=O)[O-])nc2[N+](=O)[O-])c1	inconclusive: 4.61 µM [activator, full curve]
COc1cc(C2C(=O)N(C3CCCCC3)CC(=O)N2Cc2ccc(C)cc2)ccc1OC(C)C (configuration not stated)	inconclusive: 2.24 µM [inhibitor, full curve]
CCc1cc2c(=O)n(Cc3ccco3)c(SCc3c(C)noc3C)nc2s1	inconclusive: 7.3 µM [inhibitor, partial curve]

Among those listed so far, these contain a nitro group on carbon:
Structure (SMILES)	Potency
CC1CCCN(c2ccc(/C=C(\C#N)c3nn(-c4ccccc4)c(N)c3C#N)cc2[N+](=O)[O-])C1 (configuration not stated)	inconclusive: 15.8 µM [inhibitor, single point]
O=C(Nc1ccc(S(=O)(=O)N2CCCC2)cc1)c1ccc([N+](=O)[O-])cc1	inconclusive: 0.891 µM [inhibitor, single point]
O=[N+]([O-])c1ccc(N2CCN(c3ccc(Cl)nn3)CC2)cc1NC1CC1	inactive
Cc1cc(C)cc(Nc2ccc([N+](=O)[O-])nc2[N+](=O)[O-])c1	inconclusive: 4.61 µM [activator, full curve]

Part of the list above, as a markdown table.

| Structure (SMILES) | Potency |
| --- | --- |
| C/C(=N\N=C1\NC(=O)C(CC(=O)Nc2ccccc2F)S1)C1CCCCC1 (configuration not stated) | inconclusive: 8.91 µM [inhibitor, partial curve, poor fit] |
| COc1ccc(OC)c(NC(=O)CSC2=Nc3ccccc3C3=NC(CC(=O)NCc4ccc5c(c4)OCO5)C(=O)N23)c1 (configuration not stated) | inactive |
